From publication doi:10.1101/2021.06.06.447232 come the findings set out here.

Amino acid sequences for entries named in this document (tags omitted). A change or cut given only in a name is not applied to a line headed by its entry. Residues count along the entry.
UniProt P16870: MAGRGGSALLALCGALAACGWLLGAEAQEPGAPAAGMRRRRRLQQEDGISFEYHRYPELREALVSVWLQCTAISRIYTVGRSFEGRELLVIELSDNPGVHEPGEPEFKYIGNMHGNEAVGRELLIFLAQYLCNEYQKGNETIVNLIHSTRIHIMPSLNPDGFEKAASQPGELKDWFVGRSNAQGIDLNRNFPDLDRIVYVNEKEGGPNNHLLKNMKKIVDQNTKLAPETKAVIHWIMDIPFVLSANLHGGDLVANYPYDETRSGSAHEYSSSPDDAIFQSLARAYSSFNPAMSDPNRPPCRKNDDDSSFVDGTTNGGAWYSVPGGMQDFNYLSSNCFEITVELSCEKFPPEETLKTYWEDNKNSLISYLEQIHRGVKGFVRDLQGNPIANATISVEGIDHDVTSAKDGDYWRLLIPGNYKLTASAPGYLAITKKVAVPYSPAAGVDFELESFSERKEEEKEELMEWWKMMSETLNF
UniProt P11021, residues 19-654: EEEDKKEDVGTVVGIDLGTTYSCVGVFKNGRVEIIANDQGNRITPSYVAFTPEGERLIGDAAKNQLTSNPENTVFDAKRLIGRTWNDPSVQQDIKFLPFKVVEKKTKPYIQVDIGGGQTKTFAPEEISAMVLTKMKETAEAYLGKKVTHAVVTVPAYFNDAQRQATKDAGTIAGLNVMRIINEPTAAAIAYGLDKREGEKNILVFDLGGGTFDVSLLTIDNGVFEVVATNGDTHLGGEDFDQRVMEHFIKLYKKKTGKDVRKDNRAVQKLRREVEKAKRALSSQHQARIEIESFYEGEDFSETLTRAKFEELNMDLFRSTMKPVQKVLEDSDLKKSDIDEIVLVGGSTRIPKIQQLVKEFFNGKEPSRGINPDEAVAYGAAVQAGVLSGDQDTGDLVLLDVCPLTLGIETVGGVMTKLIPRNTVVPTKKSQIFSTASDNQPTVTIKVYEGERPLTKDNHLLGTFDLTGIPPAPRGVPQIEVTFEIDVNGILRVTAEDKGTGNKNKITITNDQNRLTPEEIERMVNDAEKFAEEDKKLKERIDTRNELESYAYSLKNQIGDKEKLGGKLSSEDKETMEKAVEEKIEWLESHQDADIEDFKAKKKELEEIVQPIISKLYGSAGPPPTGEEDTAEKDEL

This experiment deals with full length CPE-GFP (carboxypeptidase E tagged at the C-terminal with GFP) (UniProt P16870). Put plainly: co-IP.

These are yes or no findings as the source states them, for the method shown. Binding seen in cells or lysates may run through a third protein. A result given as binding can be weak or reduced; the word gives no strength.

For the substance “GRP78-mCherry (from UniProt P11021 19-654)”, the binding result is “binds”.
